Patent US11882835B2, “Benzimidazole compound having an optionally halogenated alkylenedioxy group or salt thereof, agricultural and horticultural insecticide comprising the compound or the salt, and method for using the insecticide” (NIHON NOHYAKU CO., LTD., priority 2018, dated 2024)
Some entries share one result that the patent states for a list of compounds.

Tested on: Myzus persicae
Assay: Test for control efficacy on Myzus persicae (foliar application, potted Chinese cabbage)
Format: in vivo
Conditions: 500 ppm, foliar application to Chinese cabbage, 6 days after application

SMILES	activity level (control rate) on Myzus persicae
CCS(=O)(=O)c1cc(C2CC2)cnc1-c1nc2cc3c(cc2n1C)OC(F)(F)O3 [Compound 1-3, 6-(5-cyclopropyl-3-ethylsulfonyl-pyridin-2-yl)-2,2-difluoro-5-methyl-5H-[1,3]dioxolo[4′,5′:4,5]benzo[1,2-d]imidazole]	A (the control rate is 100%)
CCSc1cc(C2CC2)cnc1-c1nc2cc3c(cc2n1C)OC(F)(F)O3 [Compound 1-1, 6-(5-cyclopropyl-3-ethylthiopyridin-2-yl)-2,2-difluoro-5-me thyl-5H-[1,3]dioxolo[4′,5′:4,5]benzo[1,2-d]imidazole]	A (the control rate is 100%)
